48 compounds from PubChem BioAssay AID662 (National Center for Advancing Translational Sciences (NCATS), 2007) can be followed below.

Structures are written as SMILES. The list shows a part of the results. The main result of the screen is listed elsewhere. These columns were measured beside it and carry no call. Most of these compounds were active or inconclusive in the main read-out, so they are no random draw. Potencies come from curve fits of mixed quality, noted in brackets.

The assay in a line: Cell signaling CRE-BLA (Fsk stim). Particulars: CHO CRE-bla reporter (cAMP response element driving beta-lactamase), forskolin EC10, beta-lactamase ratio; measured here: 460 nm blue channel. Put shortly: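 AC50 values, positive or negative, reflect shifts in EC10 NKH 477-induced CRE-bla reporter activity in CHO cells. Incubation lasted 3 h at 37 °C before CCF4 substrate (2 h, room temperature) and ratiometric 460/530 nm reading.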
Take `COc1ccc(-n2c(SCCC#N)nnc2-c2cc(Cl)ccc2OC)cc1Cl`: the AC50 was 5.01 µM [rising, partial curve]. As for `Cn1c(=O)c(-c2cc(F)cc(F)c2)nc2cnc(Oc3ccccc3)nc21`, the figure is 25.1 µM [rising, single point]; as for `CNC(=O)c1cc2c(=O)n3cc(C)ccc3nc2n(C(C)C)c1=N`, 12.6 µM [rising, partial curve]; as for `Cc1cc(C)c2c(n1)nn1c(N3CCOCC3)cc(C)nc21`, 1.26 µM [rising, full curve]. As for `Cc1noc(C)c1-c1ccc2ncnc(NCc3ccccc3)c2c1`, the figure is 7.94 µM [rising, partial curve]. As for `CN(C)C(=O)c1ccc(-c2cc(Nc3ccccc3)ncn2)cc1`, the figure is 5.01 µM [rising, single point]; as for `COC(=O)c1ccccc1NC(=O)COc1ccccc1`, 20 µM [rising, single point]; as for `CCCCC(=O)Nc1cccc2c1C(=O)N(c1ccccc1)C2=O`, 10 µM [rising, single point]. For the compound `CC(Oc1ccc(Cl)cc1Cl)C(=O)N(Cc1ccco1)C1CCS(=O)(=O)C1` (stereo not drawn), the AC50 is 10 µM [rising, single point]. As for `C=C1CSc2nc(=O)c3c4c(sc3n21)CCCC4`, the figure is 12.6 µM [rising, single point]. Under `COc1ccc(S(=O)(=O)N(C)CC(=O)N2CCC(C(N)=O)CC2)cc1Cl` stands 5.01 µM [falling, partial curve, poor fit]. As for `Cc1csc(SCC(=O)Nc2cc(C(C)(C)C)nn2-c2ccccc2)n1`, the figure is 0.02 µM [falling, full curve, poor fit]. Regarding `Cc1nn(Cc2ccccc2)c(C)c1C(=O)OCC(=O)c1cc(C)n(C2CC2)c1C`, the AC50 was 0.398 µM [falling, full curve]. As for `CCC(=O)N1CCc2cc(OC)c(OC)cc2C1COc1ccc(C(=O)OC)cc1` (stereo not drawn), the figure is 3.98 µM [rising, partial curve].

For the compound `CCOC(=O)c1cc2ccc(OC(=O)c3ccco3)cc2oc1=O`, the AC50 is 3.98 µM [rising, partial curve]. As for `CCOCc1cc(C2NC(=O)NC(C)=C2C(=O)OCC)ccc1OC` (stereo not drawn), the figure is 12.6 µM [rising, partial curve]; as for `CC1=C(C(=O)OCc2ccccc2)C(c2ccc(Cl)cc2)NC(=O)N1CCCCCC(=O)O` (stereo not drawn), 12.6 µM [rising, partial curve]; as for `COc1cc(-c2nn3c(-c4ccccc4)nnc3s2)cc(OC)c1OC`, 1 µM [rising, full curve].

With `CN(Cc1ccco1)c1nc(-c2ccoc2)nc2ccccc12`, the half-maximal activity concentration (AC50) is 3.98 µM [rising, full curve].

In the case of `CCCCn1c(SCC(=O)OC)nc2c1c(=O)n(C)c(=O)n2C`, the AC50 was 12.6 µM [rising, partial curve]. As for `Cc1cc(C)c2c(n1)nn1c(N3CCN(c4cccc(Cl)c4)CC3)cc(C)nc21`, the figure is 0.00316 µM [rising, full curve, poor fit]; as for `COc1ccc(CC(=O)Nc2cccc(-c3nnc(-c4ccccc4)o3)c2)cc1OC`, 25.1 µM [falling, single point]. For the compound `Cc1ccc(S(=O)(=O)N2CCC(C(=O)N[C@@H](C)C(=O)NCc3ccccc3)CC2)cc1`, the AC50 is 0.00794 µM [falling, partial curve, poor fit].

For the compound `Clc1ccc(OCc2nn3c(-c4ccco4)nnc3s2)cc1`, the AC50 was 12.6 µM [rising, single point]. Under `Cc1ccc(-n2c3c(cc(C(=O)NCc4ccco4)c2=O)C(=O)CC(C)(C)C3)cc1` stands 0.398 µM [rising, partial curve]; under `Cc1ccc(-c2nn(-c3ccccc3)cc2C2SCC(=O)N2Cc2ccccc2)o1` (stereo not drawn), 15.8 µM [falling, partial curve].

Turning to `COc1ccc(C2CC(=O)c3cnc(N4CCN(Cc5ccccc5)CC4)nc3C2)cc1` (stereo not drawn), the concentration at half-maximal activity (AC50) is 12.6 µM [rising, single point]. For the compound `N#CCCn1c(=O)c(-c2ccc(Cl)cc2)nc2cnc(N3CCNCC3)nc21`, the AC50 is 2 µM [rising, full curve]. As for `CCOC(=O)c1ccccc1NC(=O)Cn1cnc2c(cnn2C(C)(C)C)c1=O`, the figure is 12.6 µM [rising, single point]; as for `Cc1cnc(CNc2ncnc3ccc(-c4ccoc4)cc23)cn1`, 10 µM [falling, partial curve]. Under `O=C1CC(Sc2nnc(-c3ccccc3)o2)C(=O)N1c1ccccc1` (stereo not drawn) stands 31.6 µM [falling, single point]; under `CCCc1nc2oc3c(NCCOCCO)ncnc3c2c2c1COC(C)(C)C2`, 0.501 µM [rising, full curve]; under `Cc1cc(C)n(CCOc2ccc(Cl)cc2Cl)n1`, 10 µM [rising, partial curve]. As for `CCOC(=O)CC(=O)CSc1nc(-c2cccnc2)cc(C)c1C#N`, the figure is 12.6 µM [rising, partial curve]. On to `O=c1[nH]c(SCc2ccc(F)cc2)nc2c1cnn2-c1ccc(F)cc1`, for which the AC50 was 3.16 µM [rising, full curve].

Turning to `O=C(CCc1ccc(O)cc1)c1c(O)cc(O)cc1O`, the half-maximal activity concentration (AC50) is 25.1 µM [falling, partial curve, poor fit]. As for `CCOC(=O)c1ccc(N2C(=O)c3n[nH]c(C)c3C2c2ccccn2)cc1` (stereo not drawn), the figure is 12.6 µM [rising, single point]; as for `c1ccc(Cn2c(Nn3cnnc3)nc3ccccc32)cc1`, 0.00398 µM [falling, full curve, poor fit]; as for `COc1ccc(S(=O)(=O)N2CCCN(CCC(=O)Nc3cccc(C(F)(F)F)c3)CC2)cc1`, 12.6 µM [rising, single point]. As for `Cc1cccc(OCC(=O)Nc2cc(C)ccc2O)c1`, the figure is 0.794 µM [rising, full curve]; as for `CC(=O)C1=C(O)C=C2Oc3c(C(C)=O)c(O)c(C)c(O)c3[C@]2(C)C1=O`, 25.1 µM [rising, partial curve, poor fit]; as for `CCc1c(C)nc2ncnn2c1N1CCC(C(=O)Nc2ccccc2)CC1`, 12.6 µM [rising, single point]. Under `COc1cc(C(=O)N2CCC(NC(=O)C(Cc3ccccc3)NC(C)=O)CC2)cc(OC)c1OC` (stereo not drawn) stands 5.01 µM [falling, partial curve]; under `CCOC(=O)C1=C(O)C(=O)N(c2ccc(S(N)(=O)=O)cc2)C1c1ccccc1` (stereo not drawn), 0.00316 µM [falling, full curve, poor fit]. Consider `CC(NC(=O)c1ccc(CS(=O)(=O)Cc2ccccc2F)o1)c1ccc2c(c1)OCCO2` (stereo not drawn), for which the half-maximal activity concentration (AC50) is 0.126 µM [falling, full curve]. Under `COC(=O)c1ccccc1NC(=O)N1CSC[C@H]1C(=O)OC` stands 10 µM [falling, partial curve].

On to `CCOc1ccc(OCC)c(NC(=O)CN(c2ccc(C)cc2)S(=O)(=O)c2c(C)noc2C)c1`, for which the half-maximal activity concentration (AC50) is 1 µM [rising, full curve, poor fit]. For the compound `Cc1ccc2nc3c(cc(C(=O)NCCCn4ccnc4)n3C)c(=O)n2c1`, the AC50 is 5.01 µM [falling, partial curve].

What is called AC50 is the concentration at which the activity in the assay is half-maximal.
